From US20250002587A1 (University of California, published 2025)
Changes are numbered by the printed parent chain. These are yes or no findings as the source states them, for the method shown. Some results given as binding are weak or reduced against the parent protein; the word gives no strength. Each block holds one binder with its values, some of them ahead of it.

Chains of the proteins cited; added tags and fusions are not shown. Lines headed by an entry give the natural chain unless they say otherwise; changes in a name come on top.
UniProt P43406: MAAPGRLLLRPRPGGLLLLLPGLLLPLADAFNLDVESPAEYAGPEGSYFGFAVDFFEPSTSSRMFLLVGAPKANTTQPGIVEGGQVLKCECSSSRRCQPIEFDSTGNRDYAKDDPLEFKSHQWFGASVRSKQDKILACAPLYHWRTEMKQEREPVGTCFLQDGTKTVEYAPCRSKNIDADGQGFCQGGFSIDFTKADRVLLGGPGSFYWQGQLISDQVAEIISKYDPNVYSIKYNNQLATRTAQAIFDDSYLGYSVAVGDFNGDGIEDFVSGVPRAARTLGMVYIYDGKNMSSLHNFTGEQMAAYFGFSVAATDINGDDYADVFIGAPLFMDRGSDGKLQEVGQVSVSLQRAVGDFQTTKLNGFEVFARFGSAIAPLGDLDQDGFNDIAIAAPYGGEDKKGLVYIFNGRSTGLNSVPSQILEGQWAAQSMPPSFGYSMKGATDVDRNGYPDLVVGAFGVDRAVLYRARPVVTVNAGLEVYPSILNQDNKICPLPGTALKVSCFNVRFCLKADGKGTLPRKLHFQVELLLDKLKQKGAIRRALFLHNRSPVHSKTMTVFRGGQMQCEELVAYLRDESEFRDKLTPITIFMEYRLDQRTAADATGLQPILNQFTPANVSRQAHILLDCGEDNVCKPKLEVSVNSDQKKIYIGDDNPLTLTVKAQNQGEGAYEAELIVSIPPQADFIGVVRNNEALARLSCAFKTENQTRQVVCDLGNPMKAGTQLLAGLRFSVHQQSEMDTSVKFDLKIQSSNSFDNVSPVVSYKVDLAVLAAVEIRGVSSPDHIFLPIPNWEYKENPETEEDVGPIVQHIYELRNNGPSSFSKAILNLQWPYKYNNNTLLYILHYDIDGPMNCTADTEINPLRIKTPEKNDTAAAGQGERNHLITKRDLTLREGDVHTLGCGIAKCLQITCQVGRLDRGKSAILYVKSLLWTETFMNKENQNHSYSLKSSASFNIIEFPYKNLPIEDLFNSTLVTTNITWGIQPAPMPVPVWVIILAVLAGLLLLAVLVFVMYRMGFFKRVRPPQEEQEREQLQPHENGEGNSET
UniProt Q0VBD0: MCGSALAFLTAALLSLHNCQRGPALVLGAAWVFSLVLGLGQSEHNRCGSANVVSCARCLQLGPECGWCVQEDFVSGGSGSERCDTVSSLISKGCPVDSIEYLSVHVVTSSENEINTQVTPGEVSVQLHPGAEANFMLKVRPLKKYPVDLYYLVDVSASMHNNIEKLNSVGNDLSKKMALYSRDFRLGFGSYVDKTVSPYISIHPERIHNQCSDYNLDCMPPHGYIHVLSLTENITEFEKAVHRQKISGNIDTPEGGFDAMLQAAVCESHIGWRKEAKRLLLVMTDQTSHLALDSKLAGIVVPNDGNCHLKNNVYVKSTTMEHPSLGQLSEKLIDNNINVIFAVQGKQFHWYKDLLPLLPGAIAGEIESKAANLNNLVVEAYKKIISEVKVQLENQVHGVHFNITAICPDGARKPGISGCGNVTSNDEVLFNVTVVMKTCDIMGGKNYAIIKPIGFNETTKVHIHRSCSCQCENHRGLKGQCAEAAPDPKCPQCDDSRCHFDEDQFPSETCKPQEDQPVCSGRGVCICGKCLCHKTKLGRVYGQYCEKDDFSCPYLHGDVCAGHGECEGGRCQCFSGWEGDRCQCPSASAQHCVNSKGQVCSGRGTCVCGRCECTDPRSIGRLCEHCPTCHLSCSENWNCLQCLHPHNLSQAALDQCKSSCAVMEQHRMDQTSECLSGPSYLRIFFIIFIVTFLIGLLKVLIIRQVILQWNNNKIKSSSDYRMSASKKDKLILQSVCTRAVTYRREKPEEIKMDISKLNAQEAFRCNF

Key:
[1] = target: T1, recombinant mouse αvβ8 (mouse, UniProt P43406 31-988; Q0VBD0 43-681, limits assumed); experiment: bio-layer interferometry
T1 construct: Soluble recombinant heterodimer used as analyte at 200 nM in BLI

[2] = target: T1, recombinant mouse αvβ8; experiment: bio-layer interferometry (legend of FIGS. 5A and 5B)
[3] = target: T1, recombinant mouse αvβ8; experiment: bio-layer interferometry, IgG on anti-human Fab-CH1 tips, 200 nM αvβ8 in solution
[4] = target: T2, surface-expressed mouse αvβ8 on murine astrocytes (mouse) (UniProt P43406+Q0VBD0); experiment: FACS on murine astrocytes
[5] = target: T2, surface-expressed mouse αvβ8 on murine astrocytes (mouse); experiment: FACS on murine astrocytes (legend of FIG. 7)
[6] = target: T2, surface-expressed mouse αvβ8 on murine astrocytes (mouse); experiment: FACS on murine astrocytes, fluorescent secondary antibody

- binding [1]: binds
- binding [2]: binds
- binding [3]: binds
B1: ADWA16-3 (antibody, V domains shown)
VH: EVQLVESGGGLVQPGGSLRLSCAVSGYIFSSYWVYWVRQAPGKGLEWVGYINPTTGYTEYADSVKGRFTISRDNSKNTLYLQMNSLRAEDTAVYYCATEGGNWEDYWGQGTLVTVSS
VL: DIQMTQSPSSLSASVGDRVTITCRASQDISNYINWYQQKPGKAPKLLIYYTSRLYGGVPSRFSGSGSGTDFTLTISSLQPEDFATYYCQQFSELPRTFGQGTKVEIK

- binding [1]: binds
- binding [4]: binds
- binding [5]: binds
- binding [2]: binds
- binding [6]: binds
- binding [3]: binds
B2: ADWA16-3.2 (antibody, V domains shown)
VH: B1 VH with N52S, E59V
VL: B1 VL
notes: also called humanized derivative of ADWA16

- binding [1]: binds
- binding [3]: binds
B3: ADWA16-1 (antibody, V domains shown)
VH: B1 VH
VL: B1 VL with G56S

- binding [1]: binds
- binding [3]: binds
B4: ADWA16-4 (antibody, V domains shown)
VH: B1 VH
VL: B1 VL with Q27K

- binding [1]: binds
- binding [3]: binds
B5: ADWA16-2 (antibody, V domains shown)
VH: B1 VH
VL: B1 VL with Q27K, I33L, G56S

- binding [6]: binds
B6: ADWA11 (antibody, V domains shown)
VH: EVQLQQSGAELVRPGAFVKLSCKASGFNIKDYYMNWVLQRPEQGLEWIGWIDPDNGNTIYDPKFQGKASITADTSSNTAYLQLSSLTSEDTAVYYCARRLLMDYWGQGTSVTVSS
VL: DIVMTQAAPSVPVTPGESVSISCRSTKSLLHFNGNTYLFWFLQRPGQSPQRLIYYMSNLASGVPDRFSGRGSGTDFTLRISRVEAEDVGVYYCMQSLEYPFTFGTGTKLEIK
notes: IgG; also called ADWA1l

- binding [3]: binds
B7: ADWA16-chimera (antibody, V domains shown)
VH: QVQLQQSGAELAKPGASMKMSCKASGYTFSSYWIYWVKQRPGQGLEWIGYINPTTGYTEYNQKFRDKATLTADKSSNTAYMQLSSLTSEDSAVYYCATEGGNWEDYWGQGTTLTVSS
VL: DIQMTQTTSSLSASLGDRVTISCRASQDISNYLNWYQQKPDGTVKLLIYYTSRLYSGVPSRFSGSGSGTDYSLTISNLEPKDIATYYCQQFSELPRTFGGGTKLEIK
notes: It was captured on anti-human Fab-CH1 tips and detected with anti-human secondary, so it has human constant regions; also called chimeric ADWA-16; chimeric version of the parent ADWA16 murine IgG
